In the first data set the test system is HLA peptide pools from tumor and normal tissue samples. Description: Identification and relative LC-MS quantitation of HLA-presented tumor associated peptides (presentation profiles). Also noted: species or system human. The note with it: FIGS. 1A to 1L; N=38 normal samples, N=91 tumor samples.
As to “EPFTRPVL (listed as Homo sapiens) [SEQ ID NO: 13]”, the “over-presentation in HLA-B*08 cancer tissues compared to a panel of HLA-B*08 normal samples” value was “over-presentation”. Take “RPKGTPPL (listed as Homo sapiens) [SEQ ID NO: 70]”: the “over-presentation in HLA-B*08 cancer tissues compared to a panel of HLA-B*08 normal samples” value is on record as “over-presentation”.

For “VPYTKVQL (listed as Homo sapiens) [SEQ ID NO: 89]”, the “over-presentation in HLA-B*08 cancer tissues compared to a panel of HLA-B*08 normal samples” value is “over-presentation”.

The same data set, now with this note: FIGS. 1M and 1O; N=592 normal samples, N=711 tumor samples.
As to “SLAESEASL (listed as Homo sapiens) [SEQ ID NO: 289]”, the “over-presentation in HLA-A*02 cancer tissues compared to a panel of HLA-A*02 normal samples” value is “over-presentation”.

Staying with this data set, now noted: Table 8; cancer entities on which the peptide was presented.
As for “291 (YVYANHFTEA; listed as Homo sapiens) [compound 291]”, the “Peptide Presentation on cancer entities” value was “BRCA, CCC, CRC, GBC, GC, GEJC, HCC, HNSCC, MEL, NHL, NSCLCadeno, NSCLCother, NSCLCsquam, OC, OSCAR, PACA, SCLC, UBC, UEC”.

Staying with this data set, now noted: cancer entities on which the peptide was found presented (Table 8A); value = entity abbreviations.
Turning to “77 (LPKLPVPPL; listed as Homo sapiens) [compound 77]”, the “Peptide Presentation on cancer entities” value is listed as “NSCLCadeno, NSCLCsquam”. On the same count and under the same terms, in the case of “135 (EYLETKRLAF; listed as Homo sapiens) [compound 135]” it was “HNSCC”; in that of “97 (EPVTKAEM; listed as Homo sapiens) [compound 97]”, “HNSCC”; in that of “89 (VPYTKVQL; listed as Homo sapiens) [compound 89]”, “BRCA, CCC, CRC, GBC, GC, HNSCC, MEL, NHL, NSCLCadeno, NSCLCsquam, PACA, PRCA, UBC, UEC”.

In the case of “198 (FPLTSIIAI; listed as Homo sapiens) [compound 198]”, the “Peptide Presentation on cancer entities” value is “NSCLCother”.

On to “225 (MPKRAHWGA; listed as Homo sapiens) [compound 225]”, for which the “Peptide Presentation on cancer entities” value is “HNSCC”. Same read-out and setting: in the case of “179 (LPLTEHEL; listed as Homo sapiens) [compound 179]” it was “HNSCC, NSCLCother, SCLC”; in that of “38 (EVYQKIIL; listed as Homo sapiens) [compound 38]”, “CCC, HNSCC, NHL, NSCLCadeno, NSCLCother”; in that of “25 (HLHPKGREL; listed as Homo sapiens) [compound 25]”, “HNSCC, NSCLCadeno”. The same measure, in the same setting: with “221 (SLKEELLSL; listed as Homo sapiens) [compound 221]” the entry was “CCC”.

In the case of “111 (GAGLRITAPL; listed as Homo sapiens) [compound 111]”, the “Peptide Presentation on cancer entities” value is reported as “NSCLCsquam, OC”. The same measure, in the same setting: in the case of “232 (KLYIHRVTL; listed as Homo sapiens) [compound 232]” it was “MEL”; in that of “249 (QQIDRVVEV; listed as Homo sapiens) [compound 249]”, “CCC, GBM, NHL”; in that of “230 (DVYFHHVL; listed as Homo sapiens) [compound 230]”, “HNSCC, NSCLCadeno, NSCLCsquam”. Still for that read-out and setting: in the case of “227 (SRFPGMSVL; listed as Homo sapiens) [compound 227]” it was “MEL”; in that of “59 (FDFRGKTKVF; listed as Homo sapiens) [compound 59]”, “NSCLCother”. Still for that read-out and setting: with “104 (FAFGEPREL; listed as Homo sapiens) [compound 104]” the entry was “MEL, OSCAR”. Regarding “140 (IAVDKPITL; listed as Homo sapiens) [compound 140]”, the “Peptide Presentation on cancer entities” value is “MEL, NSCLCsquam”. Same read-out and setting: with “177 (SVPVRSSPL; listed as Homo sapiens) [compound 177]” the entry was “NHL”; with “160 (LPINNTHI; listed as Homo sapiens) [compound 160]”, “NSCLCsquam, UBC”. Same read-out and setting: in the case of “39 (DAKSKIEQI; listed as Homo sapiens) [compound 39]” it was “HNSCC, NSCLCsquam, PACA”; in that of “185 (MELKTVKPI; listed as Homo sapiens) [compound 185]”, “CCC, GBM, NSCLCother, NSCLCsquam”. As to “32 (NPYLKLVL; listed as Homo sapiens) [compound 32]”, the “Peptide Presentation on cancer entities” value was “CLL, NHL, NSCLCother, NSCLCsquam, SCLC”. Same read-out and setting: with “174 (HAMPSPRIL; listed as Homo sapiens) [compound 174]” the entry was “NSCLCother”; with “128 (HFHNRHVF; listed as Homo sapiens) [compound 128]”, “HNSCC, OSCAR, UEC”. The same measure, in the same setting: in the case of “159 (DLRNKIIA; listed as Homo sapiens) [compound 159]” it was “HNSCC, NSCLCsquam”; in that of “36 (IVKIKVQEL; listed as Homo sapiens) [compound 36]”, “CLL, NHL, NSCLCother, NSCLCsquam”; in that of “96 (RPAGVFEL; listed as Homo sapiens) [compound 96]”, “NSCLCadeno”. The same measure, in the same setting: with “88 (MLLCLSLEL; listed as Homo sapiens) [compound 88]” the entry was “GBC, HNSCC, MEL, NSCLCadeno, NSCLCsquam, SCLC”; with “64 (FILGREAGAL; listed as Homo sapiens) [compound 64]”, “BRCA, CCC, HNSCC”. Regarding “127 (EPVIRTVSI; listed as Homo sapiens) [compound 127]”, the “Peptide Presentation on cancer entities” value is “HNSCC”. On the same count and under the same terms, with “200 (VAAARAVPV; listed as Homo sapiens) [compound 200]” the entry was “MEL”; with “69 (ELARQRLL; listed as Homo sapiens) [compound 69]”, “HNSCC, NSCLCadeno, NSCLCsquam”. “6 (NRQKRFVL; listed as Homo sapiens) [compound 6]”: the “Peptide Presentation on cancer entities” value was “NSCLCadeno, PACA, UBC, UEC”.

For the substance “223 (DVSARKLRV; listed as Homo sapiens) [compound 223]”, the “Peptide Presentation on cancer entities” value is on record as “SCLC”. Still for that read-out and setting: with “212 (EEYKFPSL; listed as Homo sapiens) [compound 212]” the entry was “NSCLCsquam, UEC”; with “201 (TASAMQHVL; listed as Homo sapiens) [compound 201]”, “NSCLCother”. Same read-out and setting: in the case of “211 (DVISKGVSL; listed as Homo sapiens) [compound 211]” it was “MEL”; in that of “99 (NVKIRFLE; listed as Homo sapiens) [compound 99]”, “HNSCC”; in that of “34 (IYRKKYIL; listed as Homo sapiens) [compound 34]”, “CLL, NHL, UBC”. The same measure, in the same setting: in the case of “49 (FLRVFTDSL; listed as Homo sapiens) [compound 49]” it was “CLL, NHL, NSCLCother, SCLC”; in that of “235 (SPNSLVTIL; listed as Homo sapiens) [compound 235]”, “HNSCC”; in that of “26 (DARCKLAEL; listed as Homo sapiens) [compound 26]”, “NSCLCadeno”.

As to “216 (EARPPSPAV; listed as Homo sapiens) [compound 216]”, the “Peptide Presentation on cancer entities” value is recorded as “GBM”.

For the substance “158 (DVIIKGNGL; listed as Homo sapiens) [compound 158]”, the “Peptide Presentation on cancer entities” value was “HNSCC, NSCLCadeno, NSCLCother, NSCLCsquam, OSCAR, RCC”. The same measure, in the same setting: in the case of “100 (VLLMGPLHL; listed as Homo sapiens) [compound 100]” it was “NSCLCsquam”; in that of “123 (SLLPFTLSF; listed as Homo sapiens) [compound 123]”, “MEL”. On the same count and under the same terms, with “199 (IPFIHLPEI; listed as Homo sapiens) [compound 199]” the entry was “GBM, HCC”.

On to “103 (IANLRVKNI; listed as Homo sapiens) [compound 103]”, for which the “Peptide Presentation on cancer entities” value is “UEC”. In the case of “170 (SPANVRGQSL; listed as Homo sapiens) [compound 170]”, the “Peptide Presentation on cancer entities” value was “GBC”. The same measure, in the same setting: with “107 (LPKGLKDWQA; listed as Homo sapiens) [compound 107]” the entry was “SCLC”; with “188 (EIMEKTTL; listed as Homo sapiens) [compound 188]”, “MEL, NSCLCsquam”. Same read-out and setting: in the case of “207 (LRKRKSPE; listed as Homo sapiens) [compound 207]” it was “HNSCC”. Still for that read-out and setting: in the case of “106 (HLHLLETSI; listed as Homo sapiens) [compound 106]” it was “HNSCC”; in that of “81 (MYRKEQYL; listed as Homo sapiens) [compound 81]”, “NSCLCother, UEC”; in that of “84 (YITRQFVQF; listed as Homo sapiens) [compound 84]”, “NSCLCother”. Take “205 (YMQYGFLSM; listed as Homo sapiens) [compound 205]”: the “Peptide Presentation on cancer entities” value was “NSCLCsquam, OC”. Same read-out and setting: in the case of “213 (FPSLFINQF; listed as Homo sapiens) [compound 213]” it was “NSCLCsquam, UEC”; in that of “208 (LPPPQPLSL; listed as Homo sapiens) [compound 208]”, “NSCLCother”; in that of “101 (FAFEKLIQF; listed as Homo sapiens) [compound 101]”, “MEL, PRCA”. On to “226 (DIYEVAVSL; listed as Homo sapiens) [compound 226]”, for which the “Peptide Presentation on cancer entities” value is “CCC”. The same measure, in the same setting: in the case of “48 (ELALRQTV; listed as Homo sapiens) [compound 48]” it was “HNSCC”; in that of “42 (VLRRKTLL; listed as Homo sapiens) [compound 42]”, “CLL, GC, NHL, NSCLCsquam, UEC”.

Regarding “3 (SIQSRYISM; listed as Homo sapiens) [compound 3]”, the “Peptide Presentation on cancer entities” value is “MEL”.

The values are drawn from patent publication US11433099B2, “Immunotherapy with B*08 restricted peptides and combination of peptides against cancers and related methods” (Immatics Biotechnologies GmbH, priority 2018, dated 2022).
